# According to PubChem BioAssay AID1671190 (National Center for Advancing Translational Sciences (NCATS), 2021):
# Protein sequences, listed by entry. Tags and fused reporters are not part of them. Lines headed by an entry give the natural chain unless they say otherwise; changes in a name come on top.
# UniProt P18054: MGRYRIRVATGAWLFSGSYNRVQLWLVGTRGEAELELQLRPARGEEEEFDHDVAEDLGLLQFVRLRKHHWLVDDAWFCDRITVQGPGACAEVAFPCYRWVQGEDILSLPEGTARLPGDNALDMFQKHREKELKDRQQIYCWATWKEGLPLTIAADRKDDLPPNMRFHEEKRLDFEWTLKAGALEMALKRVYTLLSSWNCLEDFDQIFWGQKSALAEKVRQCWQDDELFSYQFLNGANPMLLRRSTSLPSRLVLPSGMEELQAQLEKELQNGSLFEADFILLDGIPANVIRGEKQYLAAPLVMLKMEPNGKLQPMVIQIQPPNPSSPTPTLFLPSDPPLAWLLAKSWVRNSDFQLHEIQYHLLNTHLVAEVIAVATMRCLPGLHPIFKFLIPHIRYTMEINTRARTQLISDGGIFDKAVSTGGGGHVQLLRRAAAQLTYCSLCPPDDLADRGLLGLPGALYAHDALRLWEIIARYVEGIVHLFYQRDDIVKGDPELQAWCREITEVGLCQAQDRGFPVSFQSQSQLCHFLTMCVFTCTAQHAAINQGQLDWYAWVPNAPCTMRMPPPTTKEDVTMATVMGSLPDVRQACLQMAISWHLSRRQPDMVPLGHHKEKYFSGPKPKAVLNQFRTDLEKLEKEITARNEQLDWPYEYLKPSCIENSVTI
# Where “and” joins values, the source holds several entries; their conditions need not be identical. Equal entries are not always repeated. About 6,100 (1.1%) of roughly 580,000 compounds were called active. Inconclusive means that the source gave no clear call. Such entries were picked first, then a sample of the others. Calls come from the whole dose curve; as a rule, active = well fitted inhibition curve with a large enough effect; inconclusive = small, poorly fitted or top-dose-only effect, or another doubt; inactive = no such curve, though single readings can be large or run the other way. A potency beside an inconclusive call is a rough fit, not a confirmed value.
# Target: Polyunsaturated fatty acid lipoxygenase ALOX12 (Homo sapiens) (UniProt P18054)
# Assay: Primary qHTS assay for inhibitors of human arachidonate 12S-lipoxygenase (ALOX12): Round 2
# Settings: purified 12hLO, xylenol orange hydroperoxide absorbance; activity change, negative = inhibition: at 108 µM (top of the series) unless noted
# In short: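 Purified human 12hLO at 150 nM in 25 mM Hepes, 0.01% Triton X-100, pH 7.0, preincubated 15 min at room temperature with compound. Reaction started with 40 uM arachidonic acid, 30 min at room temperature. Hydroperoxide measured by Fe-xylenol orange, 573/405 nm absorbance ratio.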
# % is set by controls: 0 for no effect and ±100 for the full control effect; potency is the fitted concentration of half-maximal effect.
Structure (SMILES),"activity change, negative = inhibition",Potency
CC1(C)CC2(CCO1)C(Nc1ccccc1)=NC(=S)N2c1ccccc1 (stereo not drawn),inactive: 0%,–
O=C(N[C@H]1C[C@H]2C(=O)NC[C@@H](CCC(=O)N3CCCCC3)N2C1)c1ccc(F)c(Cl)c1,–,"inconclusive: 15.8 µM [inhibitor, full curve, poor fit]"
O=S1(=O)N=C(N/N=C/c2cccs2)c2ccccc21,inactive: 48.7%,–
CCC(C(=O)N1CCC(c2n[nH]c(=O)n2Cc2ccc(OC)cc2)CC1)c1ccccc1 (stereo not drawn),–,active: 35.5 µM
CC1=C[C@@H](CNS(C)(=O)=O)[C@H](C(C)C)C[C@H]1CC(=O)NC1CCCC1,inactive: 9.08% [at 176 µM],–
COc1ccc(NC(=O)COc2coc(CN3CCSCC3)cc2=O)cc1OC,–,"inconclusive: 31.6 µM [inhibitor, partial curve, poor fit]"
COc1ccc(CCNC(=O)CN2CCC(C)CC2)cc1OC,–,"inconclusive: 25.1 µM [inhibitor, partial curve, poor fit]"
O=C(CN1CCN(S(=O)(=O)c2ccccc2C(F)(F)F)CC1)NCc1cccs1,–,"inconclusive: 50.1 µM [inhibitor, partial curve, poor fit]"
CCCCCC(=O)N/N=C/c1ccc(C(C)C)cc1,inactive: -3.08%,–
O=C(Nc1cccc(-c2nnc3n2CCCC3)c1)c1ccc(F)cc1F,inactive: 11.2%,–
CCOC(=O)C1CCCN(Cc2ccc(OC)c(OCc3ccccc3)c2)C1 (stereo not drawn),–,"inconclusive: 1.78 µM [inhibitor, full curve]"
CN1CCN(S(=O)(=O)c2ccc(Br)s2)CC1,inactive: -16.9%,–
O=C(CSc1ccc2nnc(-c3cccnc3)n2n1)NCC1CCCO1 (stereo not drawn),inactive: 25.4%,–
COc1cc(/C=N/NC(=O)CCC(=O)NCc2ccccc2)cc(OC)c1OC,inactive: 5.72%,–
Cc1ccc2nc(C3CCN(Cc4ccccc4)CC3)[nH]c(=O)c2c1,–,"inconclusive: 15.8 µM [inhibitor, full curve]"
Cc1cc(N2CCC(C)CC2)nc(NCc2ccccc2)n1,–,"inconclusive: 35.5 µM [inhibitor, partial curve, poor fit]"
O=C(NNc1ncnc2c1cnn2-c1ccccc1)c1cccc(Cl)c1,–,"inconclusive: 56.2 µM [inhibitor, partial curve, poor fit]"
O=C(NCc1ccccc1Cl)[C@H]1CCCN1C(=O)[C@H]1CCCN1C(=O)c1cccc2ccccc12,–,"inconclusive: 126 µM [inhibitor, single point]"
CCCCCCCc1ccc(-c2ccc(OC(F)(F)F)cc2)nc1,inactive: 46.6%,–
COc1ccccc1NC(=O)CSc1nnnn1-c1ccc2c(c1)OCO2,inactive: -11.9% [at 57.4 µM],–
COc1ccc(OC)c(NC(=O)Nc2c(O)ccc3ccccc23)c1,–,"inconclusive: 35.5 µM [inhibitor, partial curve, poor fit]"

# Already shown: an excerpt of the list.
Structure (SMILES),"activity change, negative = inhibition",Potency
CCCCCC(=O)N/N=C/c1ccc(C(C)C)cc1,inactive: -3.08%,–
O=C(Nc1cccc(-c2nnc3n2CCCC3)c1)c1ccc(F)cc1F,inactive: 11.2%,–

# Next part

Structure (SMILES),"activity change, negative = inhibition",Potency
O=C1C=CN(S(=O)(=O)c2ccc(Cl)cc2)C(c2cccs2)C1 (stereo not drawn),–,"inconclusive: 20 µM [inhibitor, partial curve, poor fit]"
Cc1ccc(N2C(=O)C3C4C=CC(CNC(=S)Nc5cccc(Cl)c5)(O4)C3C2=O)cc1 (stereo not drawn),–,"inconclusive: 44.7 µM [inhibitor, partial curve, poor fit]"
O=S(=O)(c1ccccc1)c1nc(Nc2ccccc2N2CCOCC2)sc1Cl,–,"inconclusive: 7.94 µM [inhibitor, partial curve, poor fit]"
O=S(=O)(c1ccc2c(c1)OCCO2)N1CCCC(c2nc(CCOCC3CC3)no2)C1 (stereo not drawn),inactive: 35%,–
COc1ccc(COc2ccc3c(C)c(CC(=O)O)c(=O)oc3c2)cc1,–,"inconclusive: 50.1 µM [inhibitor, partial curve, poor fit]"
O=C(Nc1ccccn1)c1ccc(Cl)c(S(=O)(=O)N2CCOCC2)c1,inactive: 4.38%,–
CN(C)S(=O)(=O)c1cccc(C(=O)N2CCN(Cc3ccccc3)CC2)c1,–,"inconclusive: 89.1 µM [inhibitor, partial curve, poor fit]"
CCN1CCCCC12Cc1ccccc1CN(C(C)=O)C2 (stereo not drawn),–,"inconclusive: 50.1 µM [inhibitor, partial curve, poor fit]"
CC(C)NCC(O)c1ccc(NS(C)(=O)=O)cc1 (stereo not drawn),–,"inconclusive: 15.3 µM [inhibitor, single point]"
CC(C)(C)c1ccc(-c2cc(C[C@H]3CNCC[C@H]3CC(=O)N3CCCCC3)no2)cc1,–,"inconclusive: 44.7 µM [inhibitor, full curve]"
CCOc1cc(C2N=C(N)Nc3nc4ccccc4n32)cc(Cl)c1O (stereo not drawn),–,"inconclusive: 100 µM [inhibitor, single point]"
COc1cccc(C(C#N)N2N=C(C)CC2(C)C)c1O (stereo not drawn),–,"inconclusive: 28.2 µM [inhibitor, partial curve, poor fit]"
CN(C)c1ccc(C(CNS(=O)(=O)c2ccc(Cl)cc2)N2CCCC2)cc1 (stereo not drawn),–,"inconclusive: 44.7 µM [inhibitor, partial curve, poor fit]"
CCCCCc1ccc(OCCC[n+]2ccccc2)c(CCCCC)c1,–,"inconclusive: 25.1 µM [inhibitor, partial curve, poor fit]"
CC(C)NC(=O)CSc1nnc(-c2cccnc2)n1C,–,"inconclusive: 44.7 µM [inhibitor, partial curve, poor fit]"
CCN(CC)S(=O)(=O)c1ccc(N2CCOCC2)c(NC(=O)CNCCc2ccccc2)c1,–,"inconclusive: 1.41 µM [inhibitor, full curve, poor fit]"
CN(C)c1ccc(C(=O)N2CCN3C(=O)c4cc(-c5ccc6c(c5)OCO6)ccc4NC(=O)[C@H]3C2)cc1,–,"inconclusive: 11.2 µM [inhibitor, partial curve, poor fit]"
O=C(Nc1nc2ccc(F)cc2s1)C1CCN(S(=O)(=O)c2cc([N+](=O)[O-])ccc2Cl)CC1,–,"inconclusive: 50.1 µM [inhibitor, partial curve, poor fit]"
COc1cc(OC)c(C(=O)Nc2ccc(S(=O)(=O)N3CCCCC3)cc2)cc1OC,–,"inconclusive: 79.4 µM [inhibitor, partial curve, poor fit]"
O=c1ncn(Cc2ccccc2)c2ccc(-c3ccccc3)nc12,–,"inconclusive: 100 µM [inhibitor, partial curve]"
O=C(Oc1ccc(-c2cn3c(n2)SCC3)cc1)c1ccccc1,–,"inconclusive: 50.1 µM [inhibitor, partial curve, poor fit]"

Structure (SMILES),"activity change, negative = inhibition",Potency
CCOC(=O)Oc1ccc2c(=O)c(Oc3ccccc3Cl)c(C(F)(F)F)oc2c1,inactive: 0%,–
O=C(N/N=C/c1ccc(N2CCOCC2)s1)c1ccc(O)cc1,–,"inconclusive: 44.7 µM [inhibitor, partial curve]"
Cc1c(CCC(=O)O)c(=O)oc2cc3occ(-c4ccc(Br)cc4)c3cc12,–,"inconclusive: 89.1 µM [inhibitor, partial curve, poor fit]"
COc1cc(/C=C2\C(=O)ON=C2c2ccccc2)cc(OC)c1OC,–,"inconclusive: 28.2 µM [inhibitor, partial curve, poor fit]"
O=C1NCc2ccccc2CC12CCN(Cc1cc(F)ccc1F)C2 (stereo not drawn),–,"inconclusive: 39.8 µM [inhibitor, partial curve]"
CCc1noc(CN2CCN(c3cc(C)nc(C(C)C)n3)CC2)n1,inactive: 3.85%,–
COc1ccc(CNc2nc3c(c(=O)n(Cc4ccc(Cl)cc4)c(=O)n3C)n2C)cc1,–,"inconclusive: 56.2 µM [inhibitor, partial curve, poor fit]"
O=C(COC(=O)c1cccc(Br)c1)Nc1ccc2[nH]c(=O)[nH]c2c1,–,"inconclusive: 28.2 µM [inhibitor, single point]"
C=CCC[C@@H](Cc1ccc(F)cc1)C(=O)OC[C@H](C)NC(=O)[C@H](CC=C)CC(=O)N(CCO)Cc1ccccc1,inactive: 1.02%,–
CCOc1ccc(C(=S)NC2CCCCC2)cc1OC,–,active: 22.4 µM
CC(C)NC(=O)NC[C@H]1O[C@@H]2C[C@@H](CC(=O)NCc3nccn3C)O[C@@H]2[C@@H]1O,–,"inconclusive: 28.2 µM [inhibitor, full curve]"
CCN(CC)CCC#CC(O)(c1ccccc1)C1CCCCC1 (stereo not drawn),–,"inconclusive: 17.8 µM [inhibitor, partial curve, poor fit]"
Cc1cc(-c2n[nH]c(=S)n2-c2ccccc2)nn1C,–,"inconclusive: 100 µM [inhibitor, partial curve, poor fit]"
COc1ccc2c(COC(=O)[C@@H]3CCCN3S(=O)(=O)c3ccc(Cl)cc3)cc(=O)oc2c1,–,"inconclusive: 44.7 µM [inhibitor, partial curve, poor fit]"
Cc1ccc(C2(C)NC(=O)N(CC(=O)Nc3ccc(Cl)c(S(=O)(=O)N4CCCCC4)c3)C2=O)cc1 (stereo not drawn),–,"inconclusive: 79.4 µM [inhibitor, single point]"
COc1ccc(CN2CCNC(=O)C2CC(=O)NCC2CCOCC2)c(C)c1C (stereo not drawn),–,"inconclusive: 39.8 µM [inhibitor, single point]"
CCCCN(C)CCNC(=O)c1cc(-c2cccnc2)nc2ccc(S(=O)(=O)N3CCC(C)CC3)cc12,–,"inactive and inconclusive: 4.47 µM [inhibitor, full curve, poor fit]"
CC1(C2CC(=O)c3c(O)ccc(O)c3C2)OCCO1 (stereo not drawn),–,"inconclusive: 79.4 µM [inhibitor, partial curve, poor fit]"
Nc1ccccc1Nc1cc(-c2cccc(Cl)c2)nn1-c1ccccc1,inactive: 0.568%,–
COc1cccc(C2CCCN2Cc2cc(=O)oc3cc(C)ccc23)c1 (stereo not drawn),–,"inconclusive: 31.6 µM [inhibitor, partial curve]"
Cc1ccc(CC2CC(=O)N(Cc3ccco3)C2=O)cc1 (stereo not drawn),–,"inconclusive: 44.7 µM [inhibitor, partial curve]"
